Laboratory results: patent US20170342161A1 (APROGEN KIC, published 2017)
Results are given in words; binding and its absence hold for the method and conditions named. Some binding calls cover weakened binding; strength is not graded here.

The chains behind the UniProt entries cited, without tags or fusion partners. Where a name states a change or a piece, a line headed by the entry shows the natural chain unless it says otherwise.
UniProt O43570: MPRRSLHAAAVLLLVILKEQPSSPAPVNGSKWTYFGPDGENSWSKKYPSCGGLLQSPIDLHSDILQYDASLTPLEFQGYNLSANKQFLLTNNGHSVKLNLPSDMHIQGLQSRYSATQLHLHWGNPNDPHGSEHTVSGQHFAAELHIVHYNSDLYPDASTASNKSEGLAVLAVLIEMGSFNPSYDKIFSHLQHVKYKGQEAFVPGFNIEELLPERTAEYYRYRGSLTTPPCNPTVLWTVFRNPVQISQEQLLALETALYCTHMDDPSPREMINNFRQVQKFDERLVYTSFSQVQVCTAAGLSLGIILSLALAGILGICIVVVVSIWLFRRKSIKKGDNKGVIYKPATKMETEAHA

B1: 27B6 monoclonal antibody (antibody, mouse IgG1, V domains shown)
VH: QVQLQQSGPQLVWPGASVKISCNTSGYSFTNYWIHWVKQRPGQGLEWIGMIDPSDSETRLNQKFKDKTTLTVDRSSSTAYMQVSSSTSEDSAVYYCTRGIRGGYYAMDYWGQGTSVTVSS
VL: DIQMTQTTSSLSASLGDRVTISCRASQDISNYLNWYQQKPEGTVKLLIYYTSRLHSGVPSRFSGSGSGTDYSLTISNLEQEDIATYFCQQGDTLPRTFGEGTKLEIR
notes: also called 27B6 Ab; mouse 27B6 antibody
B2: 4B4 monoclonal antibody (antibody, V domains shown)
VH: EIQLQQSGPELVKPGASVKISCKASGYSYTDYNIYWVRQSQGKSLDWIGYIDPANGDTTYNQKFKGKATLTVDKSSSTAFMHLNSLTSDGSAVYFCARPIYYGVYWYFDVWGAGTTVTVS
VL: DIVMTQAAPSVPVTPGESVSISCRSSKSLLHSNGNTYLYWFLQRPGQSPQLLIYRMSNLASGVPDRFSGSGSGTAFTLRISRVEAEDVGVYYCMQHLEYPFTFGSGTKLEIK
notes: Mouse hybridoma antibody; also called 4B4 Ab; mouse 4B4 antibody
B3: 27B6 chimeric antibody (antibody, V domains shown)
VH: B1 VH
VL: B1 VL
notes: Chimeric antibody: mouse 27B6 variable regions, the rest 'substituted with the Fc of the human antibody'; Produced in CHO DG44 cells; also called chimeric 27B6; 27B6-HuIgFc

Key:
[1] = target: recombinant protein carbonic anhydrase 12 (R&D Systems) (Homo sapiens (Human)) (UniProt O43570); assay: ELISA, Western blot and sandwich ELISA on recombinant CA12 (signal of 27B6 'relatively low' in the direct formats)
[2] = target: recombinant protein carbonic anhydrase 12 (R&D Systems) (Homo sapiens (Human)) (UniProt O43570); assay: ELISA, recombinant CA12 coated at 100 ng/well
[3] = target: recombinant protein carbonic anhydrase 12 (R&D Systems) (Homo sapiens (Human)) (UniProt O43570); assay: Western blot of boiled recombinant CA12
[4] = target: recombinant protein carbonic anhydrase 12 (R&D Systems) (Homo sapiens (Human)) (UniProt O43570); assay: sandwich ELISA, chimeric 27B6 coated as capture, recombinant CA12 from 100 ng/ml, 4B4 as detector

Binder	binding [1]	binding [2]	binding [3]	binding [4]
B1	binds	binds	binds	
B2		binds	binds	binds
B3				binds
